In doi:10.1101/2020.07.07.191437:
These are yes or no findings as the source states them, for the method shown. In cells and extracts the contact can be indirect.

Sequences of proteins named here, by UniProt entry; tags and fusion partners are left off. A change or cut given only in a name is not applied to a line headed by its entry.
UniProt Q92540: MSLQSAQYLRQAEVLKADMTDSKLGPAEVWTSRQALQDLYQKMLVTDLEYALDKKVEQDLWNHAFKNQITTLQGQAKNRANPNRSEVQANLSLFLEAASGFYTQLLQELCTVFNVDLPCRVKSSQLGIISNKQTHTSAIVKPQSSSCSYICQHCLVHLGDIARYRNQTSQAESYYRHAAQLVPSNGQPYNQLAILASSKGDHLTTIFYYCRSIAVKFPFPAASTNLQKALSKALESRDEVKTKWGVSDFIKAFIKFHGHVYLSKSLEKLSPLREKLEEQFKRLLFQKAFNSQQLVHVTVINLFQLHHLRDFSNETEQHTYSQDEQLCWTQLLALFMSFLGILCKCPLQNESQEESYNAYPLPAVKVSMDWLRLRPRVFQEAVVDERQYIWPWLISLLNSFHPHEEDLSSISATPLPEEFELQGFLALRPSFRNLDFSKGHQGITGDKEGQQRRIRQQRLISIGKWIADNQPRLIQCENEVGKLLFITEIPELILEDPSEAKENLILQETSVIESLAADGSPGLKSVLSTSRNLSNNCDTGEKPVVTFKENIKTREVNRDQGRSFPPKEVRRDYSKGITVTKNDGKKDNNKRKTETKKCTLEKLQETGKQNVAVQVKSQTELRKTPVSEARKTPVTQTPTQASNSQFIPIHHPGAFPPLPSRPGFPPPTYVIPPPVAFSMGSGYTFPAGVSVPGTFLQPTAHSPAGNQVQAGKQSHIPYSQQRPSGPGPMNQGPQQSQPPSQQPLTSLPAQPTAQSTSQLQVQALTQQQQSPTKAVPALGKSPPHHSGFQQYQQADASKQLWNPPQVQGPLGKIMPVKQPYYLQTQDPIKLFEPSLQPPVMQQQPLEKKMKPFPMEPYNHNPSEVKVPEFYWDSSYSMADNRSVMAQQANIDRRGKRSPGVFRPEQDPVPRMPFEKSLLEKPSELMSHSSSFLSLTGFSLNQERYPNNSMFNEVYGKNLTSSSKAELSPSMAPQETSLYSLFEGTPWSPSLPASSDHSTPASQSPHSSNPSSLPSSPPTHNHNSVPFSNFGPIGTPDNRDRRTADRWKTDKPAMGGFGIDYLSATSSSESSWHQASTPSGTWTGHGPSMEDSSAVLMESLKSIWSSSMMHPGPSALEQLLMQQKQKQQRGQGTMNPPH

Assays:
[1] = molecular target: FLAG-tagged SMG7 14-3-3^mut (full length) (human) (UniProt Q92540); assay: co-IP
[2] = molecular target: FLAG-tagged SMG7 1-633 14-3-3^mut (human) (UniProt Q92540); assay: co-IP

B1: UPF1 (protein, UniProt Q92900 1-1129)
chain: MSVEAYGPSSQTLTFLDTEEAELLGADTQGSEFEFTDFTLPSQTQTPPGGPGGPGGGGAGGPGGAGAGAAAGQLDAQVGPEGILQNGAVDDSVAKTSQLLAELNFEEDEEDTYYTKDLPIHACSYCGIHDPACVVYCNTSKKWFCNGRGNTSGSHIVNHLVRAKCKEVTLHKDGPLGETVLECYNCGCRNVFLLGFIPAKADSVVVLLCRQPCASQSSLKDINWDSSQWQPLIQDRCFLSWLVKIPSEQEQLRARQITAQQINKLEELWKENPSATLEDLEKPGVDEEPQHVLLRYEDAYQYQNIFGPLVKLEADYDKKLKESQTQDNITVRWDLGLNKKRIAYFTLPKTDSGNEDLVIIWLRDMRLMQGDEICLRYKGDLAPLWKGIGHVIKVPDNYGDEIAIELRSSVGAPVEVTHNFQVDFVWKSTSFDRMQSALKTFAVDETSVSGYIYHKLLGHEVEDVIIKCQLPKRFTAQGLPDLNHSQVYAVKTVLQRPLSLIQGPPGTGKTVTSATIVYHLARQGNGPVLVCAPSNIAVDQLTEKIHQTGLKVVRLCAKSREAIDSPVSFLALHNQIRNMDSMPELQKLQQLKDETGELSSADEKRYRALKRTAERELLMNADVICCTCVGAGDPRLAKMQFRSILIDESTQATEPECMVPVVLGAKQLILVGDHCQLGPVVMCKKAAKAGLSQSLFERLVVLGIRPIRLQVQYRMHPALSAFPSNIFYEGSLQNGVTAADRVKKGFDFQWPQPDKPMFFYVTQGQEEIASSGTSYLNRTEAANVEKITTKLLKAGAKPDQIGIITPYEGQRSYLVQYMQFSGSLHTKLYQEVEIASVDAFQGREKDFIILSCVRANEHQGIGFLNDPRRLNVALTRARYGVIIVGNPKALSKQPLWNHLLNYYKEQKVLVEGPLNNLRESLMQFSKPRKLVNTINPGARFMTTAMYDAREAIIPGSVYDRSSQGRPSSMYFQTHDQIGMISAGPSHVAAMNIPIPFNLVMPPMPPPGYFGQANGPAAGRGTPKGKTGRGGRQKNRFGLPGPSQTNLPNSQASQDVASQPFSQGALTQGYISMSQPSQMSQPGLSQPELSQDSYLGDEFKSQIDVALSQDSTYQGERAYQHGGVTGLSQY
In the case of B1, the binding [1] is reported as “no binding” and the binding [2] is reported as “no binding”.
